Source: PubChem BioAssay AID1794844 (National Center for Advancing Translational Sciences (NCATS), 2023)
Out of some 2,800 compounds screened, fewer than 10 were called active. Inconclusive results (about 7%) are left out. The call rests on the fitted dose curve; in most records, active means well fitted inhibition curve with a large enough effect; inconclusive means small, poorly fitted or top-dose-only effect; inactive means no such curve, though single readings can be large or run the other way. The list shows a part of the results.

Protein sequences, listed by entry. Tags and fused reporters are not part of them. Lines headed by an entry give the natural chain unless they say otherwise; changes in a name come on top.
UniProt C7C422: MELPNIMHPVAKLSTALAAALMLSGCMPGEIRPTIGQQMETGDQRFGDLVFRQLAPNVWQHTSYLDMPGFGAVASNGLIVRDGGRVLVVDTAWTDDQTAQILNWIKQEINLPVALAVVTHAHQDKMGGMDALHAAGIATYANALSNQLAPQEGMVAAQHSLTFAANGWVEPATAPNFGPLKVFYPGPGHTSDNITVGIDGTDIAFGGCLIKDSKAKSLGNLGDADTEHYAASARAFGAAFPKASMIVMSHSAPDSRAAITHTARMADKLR

Target: Metallo-beta-lactamase type 2 (Klebsiella pneumoniae) (UniProt C7C422)
Test: qHTS to identify inhibitors of the New Delhi Metallo-beta-lactamase (NDM): Nitrocefin screen against the machine-based learning selections. Further: % of control where 0% means no effect.
Details: NDM-1 enzyme, nitrocefin hydrolysis, absorbance 485 nm; activity, negative = inhibition: at the top concentration
Procedure, shortened: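 Hydrolysis by 2 nM NDM-1 was followed by absorbance after >30 min compound preincubation in HEPES pH 7.0 buffer with 1 uM Zn2SO4. For nitrocefin (16.7 uM, 15 min, 485 nm) and meropenem (50 uM, 30 min, 300 nm), each substrate ran on separate plates.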

activity, negative = inhibition, inactive:
CS(=O)(=O)N1CCCC(c2nc(-c3ccccc3)no2)CCNC(=O)CC1 (centres undefined) -0.831%
NC(=O)c1ccc(Nc2cnc3ccc(-c4ccccc4)nn23)cc1 2.31% [at 57.5 µM]
O=C(NCc1cccnc1)[C@@H]1C[C@@H](c2ccc(F)cc2)N(Cc2ccccc2)C1 0.701% [at 57.5 µM]
CCn1ccc2cc(C(=O)N3CCC(=O)N(CC4CC4)C(C(C)C)C3)ccc21 (centres undefined) -3.93%
Fc1ccc(-c2ccc3ncc(Nc4ccccn4)n3n2)cc1 10.1% [at 57.5 µM]
CN1CCC(OCCCn2cnc3cn(C)nc3c2=O)CC1 -2.98%
Cc1c(CN2C[C@@H](COc3ccccc3)[C@H](C(N)=O)C2)cnn1C 2.24%
O=C(NCc1cccnc1)c1ccc2oc(-c3ccc(C(F)(F)F)cc3)nc2c1 1.02%
CC1(COc2ccccc2)COc2ccc(C(=O)NCCc3ccccn3)cc2N1 (centres undefined) -11.2% [at 57.5 µM]
CC(=O)Nc1ccc(S(=O)(=O)N[C@H]2CO[C@H]3[C@@H]2OC[C@@H]3n2nnnc2Oc2ccc(-n3ccnc3)cc2)cc1 9.9%
Cc1ccc(NC(=O)N2CCCC(Cn3c(C4CC4)nc4cccnc43)C2)c(C)c1 (centres undefined) -5.5%
CC(=O)NC1(C)CCCN(Cc2cc(-c3ccccc3)cs2)C1 (centres undefined) -4.9% [at 57.5 µM]
NCCn1cc(C(=O)NCCS(=O)(=O)N2CCCC2)nn1 3.3%
O=C(N[C@H](Cc1ccncc1)C1CC(O)C1)c1ccc(CO)o1 (some centres undefined) 6.76%
CCNC(=O)N1CC[C@@H](CC(=O)O)[C@@H](CC2=NCCc3ccc(C)cc32)C1 -5.95% [at 57.5 µM]
Cc1cccc(-n2cc(CN3CCN(c4cc(N)nc(N)n4)CC3)cn2)c1 7.37%
O=C(NC1C[C@H]2CC[C@@H](C1)N2C(=O)c1ccn[nH]1)c1ccncc1 (some centres undefined) -1.67%
CC1=C[C@@H](CO)[C@H](C(C)C)C[C@H]1Cc1nnc(Cc2c[nH]c3ccccc23)o1 -10.7% [at 57.5 µM]
CC(C)c1cc(CN(C)Cc2cn[nH]c2-c2ccc(F)cc2)no1 -9.64%
CCc1nc2c(c(-c3ccc(Cl)cc3)n1)CN([S+](=O)([O-])c1ccc(C)cc1)CC2 -1.15%
O=C([C@@H]1C[C@H](F)CN1C(=O)NC1CCCC1)N1CCc2ccccc2C1 -3.69%
COC[C@H]1C[C@@H](NC(=O)C2CCOCC2)[C@H](O)[C@@H]1O 26.9% [at 76.7 µM]
O=C(NC1CCC(n2cnnc2)CC1)c1ccc(Cn2cnnn2)cc1 (centres undefined) 5.73%
O=C(N[C@H]1CCN2C(=O)c3cc(-c4ccc(F)cc4F)ccc3NC(=O)[C@H]12)c1cccs1 1.2%
COc1ccc2nc([C@H]3CCN(C4CCN(C)CC4)C3)[nH]c2c1 10% [at 57.5 µM]
c1cncc(Nc2cc3c(cn2)CN(Cc2cccs2)CCN3)c1 10.4% [at 57.5 µM]
CC(=O)c1ccc(NC(=O)N[C@H]2CCN3C(=O)[C@@H](Cc4ccccc4)NC(=O)[C@H]23)cc1 -8.78% [at 57.5 µM]
COc1ccc(CN2CCC[C@H]2c2nc(-c3cncnc3N)no2)c(O)c1 -3.68% [at 57.5 µM]
CN(C)[C@H]1CCN(C(=O)Cc2cn(C)c3ccccc23)C[C@H]1CCC(=O)O -6.21%
Cc1ccc(C(=O)N2CC[C@@H]3CN(S(C)(=O)=O)[C@@H]3C2)c(=O)[nH]1 3.71%
C[S+](=O)([O-])c1cccc(NC(=O)Cc2c[nH]c3ncc(-c4ccccc4)cc23)c1 -6.2% [at 57.5 µM]
COC(=O)c1ccc(N2C[C@H]3OC(=O)N(CCc4ccc(OC)cc4)[C@H]3C2)nc1 0.339%
O[C@@H]1C[C@@H](c2nc(Cc3ccc(F)cc3Cl)no2)N(Cc2ccc(OC(F)(F)F)cc2)C1 -5.94%
CC(C)C(=O)NCCC1CCN(C(=O)Nc2cc(F)ccc2F)CC1 1.6%
CC(C)CN(Cc1cccnc1)C1CN(C(=O)NCc2ccc(F)cc2)C1 3.42%
O=C(O)CCc1cc2n(n1)CCCN(C(=O)c1ccc3n[nH]nc3c1)C2 -10.3%
O=C(O)CCc1nc(C2CCOCC2)n[nH]1 -0.0925%
CCN(CC)C(=O)C[C@@H]1CCNC[C@@H]1Cc1cc(-c2ccc(C(C)(C)C)cc2)on1 3.9% [at 57.5 µM]
O[C@H]1CC[C@@H](Cc2cc(COc3ccccc3)on2)O[C@@H]1CNC1CCNCC1 30.5%
O=C(Nc1ccccc1)Nc1ccc([C@@H](O)[C@H]2COCC(=O)N2Cc2cccnc2)cc1 -3.73% [at 57.5 µM]
COc1ccc2c(c1)OCC(CNC(=O)c1noc3c1CCCC3)C2 (centres undefined) -14.1%
COc1cc(SC)ccc1C(=O)N[C@H]1CCN2C(=O)N(c3ccc(OC(F)(F)F)cc3)C(=O)[C@@H]2C1 -1.29%
CC[C@H]1CN(C(=O)C2CC2)CC[C@H]1CC(=O)N(C)CCC#N 8.05% [at 57.5 µM]
O=C(Cn1cnnn1)N1CCc2ncnc(NC[C@H]3CCCO3)c2CC1 4.04%
Cc1ncc2n1C(=O)N(C1CCN(Cc3ccsc3)CC1)C2 5.15% [at 57.5 µM]
COc1ccc(-c2nc3c(c(=O)[nH]2)CCN(C(=O)Nc2ccc4c(c2)CCC4)C3)cc1 1.8%
CN1c2cc(C(=O)NCc3cccs3)ccc2C(=O)N2CCCCC21 (centres undefined) 0.854%
COC(=O)[C@@H]1Cc2c([nH]c3ccccc23)[C@@H]2C[C@@H](NCCNC(C)=O)C[C@@H](c3cccc(Cl)c3)N12 -8.34%
Cc1cc(C)c(S(=O)(=O)N2CCCC(Cn3cc(CO)nn3)C2)c(C)c1 (centres undefined) -3.86%
CC(c1cccc(-c2nc3c(cc2C(N)=O)CCC3)c1)N1CCCC1 (centres undefined) -6.21%
COC(=O)[C@H](NC(=O)[C@@H]1[C@@H](NC(=O)Nc2cccc(SC)c2)CCN1C(=O)C=C(C)C)C(C)C -5.21%
O=C(CCn1nnc(-c2ccccc2)n1)N1CCCC2(CCNCC2)CC1 -7.4%
CC(=O)N1CCN(C(=O)c2cc(CC(C)C)[nH]c(=O)n2)CC(O)C1 (centres undefined) -12.2%
COc1ccc(CN2C(=O)[C@@H]3C[C@@H](O)CN3C3(CN(C(C)C)C3)C2=O)cc1 -6.04% [at 57.5 µM]
Cc1cnc(C(=O)NC2CC(c3nnc(CO)n3C3CC3)C2)[nH]1 (centres undefined) 4.16%
Cn1ccc(NC(=O)c2cnc3c(c2)N([S+](=O)([O-])c2cccnc2)CCC3)n1 -2.93% [at 57.5 µM]
O=C(O)CCC(=O)N1Cc2[nH]cnc2C[C@H]1C(=O)NC1CCCCC1 -12.9% [at 57.5 µM]
O=C(c1ccccc1)N1CCNc2cnc(Nc3cccc(F)c3)nc2C1 -1.91% [at 57.5 µM]
COc1ccc(-n2nc(C)c([C@@H]3C=C[C@@H](NC(=S)NCC(C)C)C3)c2C)cc1 262% [at 57.5 µM]
CCOCCN1C(=O)COC[C@@H]1[C@H](O)c1ccc(NC(C)=O)cc1 2.36% [at 57.5 µM]
O=C(Nc1ccc([C@H]2OCC(=O)N(C3CCOCC3)[C@@H]2CO)cc1)c1ccc(C(F)(F)F)cc1 2.8%
CCOc1cc(CN(C)C(=O)CC2C(=O)NCCN2Cc2ccccc2)ccc1OC (centres undefined) -9.59%
CSCC(=O)N1C[C@@H](NC(=O)Nc2ccc(F)cc2F)C[C@H]1C(=O)N[C@H](Cc1ccccc1)C(N)=O -0.0589%
c1cncc(COc2cc3c(cn2)NCCN(Cc2ccc4[nH]ccc4c2)C3)c1 3.77% [at 57.5 µM]
CC(C)(C)c1ccc(C(=O)N2CCCC(O)(CN3CCCC3)C2)cc1 (centres undefined) 2.22%
Nc1ncc(-c2ccc(-c3cc(NC4CCCC4)nc4[nH]ccc34)cc2)[nH]1 -0.586%
COc1ccc(C(=O)N2CCn3c(nn(-c4ccc([N+](=O)[O-])cc4)c3=O)C2)cc1 2.85%
CCC(=O)N1CCC(Cc2nc(-c3ccccc3)n[nH]2)CC1 -6.53%
NS(=O)(=O)CCCC(=O)N1CCC(Cc2cccc(C(=O)O)c2)C1 (centres undefined) -2.83%
O=C(Nc1ccc(Oc2ccccc2)cc1)O[C@@H]1CO[C@H]2[C@@H]1OC[C@@H]2NS(=O)(=O)c1ccc(Cl)cc1 2.65%
COc1cccc(CN2CCNc3cc(Nc4cccnc4)ncc3C2)c1 8.42% [at 57.5 µM]
N#Cc1cccc(NC(=O)N2C[C@@H]3C[C@H](C2)c2ccc(-c4ccc(OC(F)(F)F)cc4)c(=O)n2C3)c1 6.07%
CN1[C@@H](CCC(=O)N2CCOCC2)CNC(=O)[C@@H]2[C@H]1CCN2Cc1cccs1 -1.64% [at 57.5 µM]
Cc1nn(-c2ccccn2)c(C)c1[C@@H]1C=C[C@@H](NC(=O)NC(C)C)C1 -1.77% [at 57.5 µM]
CN1C[C@@H](NC(=O)C2CCCCC2)C[C@H]1c1nc(-c2ccc3c(c2)OCO3)no1 -2.15% [at 57.5 µM]
COCCN1CCN(C[C@@H]2C=C(C)[C@H](Cc3nnc(-c4cccnc4)o3)C[C@H]2C(C)C)CC1 -10.3%
COc1ccc(C(=O)N2C[C@@H]3OCC(=O)N(Cc4nccn4C)[C@@H]3C2)cc1 -1.41% [at 57.5 µM]
CNS(=O)(=O)c1ccc(CN2CC3(CCNCC3)CC2C(=O)O)cc1 (centres undefined) -4.04%
O=C1Nc2ccccc2CC12CCN(CC1CC1)CC2 -4.6% [at 57.5 µM]
NCCn1cc(C(=O)NCC(O)c2ccccc2C(F)(F)F)nn1 (centres undefined) 2.02%
COc1ccccc1-c1ccc2ncc(Nc3cccc(N[S+](C)(=O)[O-])c3)n2n1 -17.2% [at 57.5 µM]
CC(=O)Nc1ccc(S(=O)(=O)N[C@H]2CO[C@H]3[C@@H]2OC[C@@H]3Nc2nccc(-c3cccs3)n2)cc1 -0.807%
NS(=O)(=O)c1ccsc1C(=O)N1CCCC2(CCNCC2)CC1 -9.98%
COCCN1CCCC(c2[nH]ccc2C(=O)NCCc2nc3ccccc3[nH]2)C1 (centres undefined) 7.47%
NC(=O)c1cccc(-c2cc(-c3ccncc3)c3cncn3c2)c1 -5.36% [at 57.5 µM]
COc1ccc(OC)c(CNC(=O)Cc2cccn2-c2ccc(C)cc2)c1 -4.62%
O=C(NC1CCCc2c1[nH]c1ccc(F)cc21)c1ccncc1 (centres undefined) 6.73%
C=CCNC(=O)N1CCC(O)(c2csc(CN3CCc4ccccc4C3)n2)CC1 -1.49% [at 57.5 µM]
CN1CCN(Cc2nc(C3(O)CCN(C(=O)CC(C)(C)C)CC3)cs2)CC1 -0.771% [at 57.5 µM]
Cc1oc(C(O)c2cccc(O)c2)nc1C(=O)Nc1ccc2[nH]c(=O)oc2c1 (centres undefined) 364% [at 57.5 µM]
CCc1nc2c(c(-c3ccc(Cl)cc3)n1)CCN(Cc1ccc(F)cc1)CC2 1.11%
CS(=O)(=O)c1ccc(CN2C[C@@H]3C[C@H]2C(=O)N(Cc2ccc(OC(F)(F)F)cc2)c2ccccc2O3)cc1 -2.68%
Oc1ccccc1CNC1(Cc2cc(-c3ccccn3)on2)COC1 -19.9% [at 57.5 µM]
O[C@@H]1C[C@@H](c2nc(Cc3ccccc3)no2)N(Cc2cc3ccccc3o2)C1 0.0666% [at 57.5 µM]

Five records picked at random from the list so far:
activity, negative = inhibition, inactive:
CC(=O)Nc1ccc(S(=O)(=O)N[C@H]2CO[C@H]3[C@@H]2OC[C@@H]3Nc2nccc(-c3cccs3)n2)cc1 -0.807%
CC(c1cccc(-c2nc3c(cc2C(N)=O)CCC3)c1)N1CCCC1 (centres undefined) -6.21%
O=C(NC1C[C@H]2CC[C@@H](C1)N2C(=O)c1ccn[nH]1)c1ccncc1 (some centres undefined) -1.67%
CC(C)c1cc(CN(C)Cc2cn[nH]c2-c2ccc(F)cc2)no1 -9.64%
COc1ccc(C(=O)N2C[C@@H]3OCC(=O)N(Cc4nccn4C)[C@@H]3C2)cc1 -1.41% [at 57.5 µM]
